The list shows a part of the results. The calls rarely recur for the same compound in another form.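 Kinases, fused to nanoluciferase, were expressed in K562 cells; luminescence was measured every 4 h from 2 to 18 h as percent of control (DMSO = 100%, positive control = 0%). A time point is decreased if signal falls significantly (2 sigma). Hits were called by the authors by a rule that is not shown; the count of time points alone does not decide it.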
Assays:
Experiment in all cases: kinase-Nluc reporter destabilization hit call (1 = scored as downregulated) (binary); higher = compound decreases kinase abundance
Settings in all cases: K562, 2-18 h
[1] = target: ABL1 (UniProt P00519)
[2] = target: AKT1 (UniProt P31749)
[3] = target: ALK (UniProt Q9UM73)
[4] = target: ARAF (UniProt P10398)
[5] = target: AURKB (UniProt Q96GD4)
[6] = target: AURKC (UniProt Q9UQB9)
[7] = target: BLK (UniProt P51451)
[8] = target: BMX (UniProt P51813)
[9] = target: BRAF (UniProt P15056)
[10] = test system: BRAF_V600E
[11] = target: BTK (UniProt Q06187)
[12] = target: CAMK2A (UniProt Q9UQM7)
[13] = target: CAMK2G (UniProt Q13555)
[14] = target: CDK10 (UniProt Q15131)
[15] = target: CDK2 (UniProt P24941)
[16] = target: CDK3 (UniProt Q00526)
[17] = target: CDK4 (UniProt P11802)
[18] = target: CDK5 (UniProt Q00535)
[19] = target: CDK6 (UniProt Q00534)
[20] = target: AURKA (UniProt O14965)

Protein sequences, listed by entry. Tags and fused reporters are not part of them. Lines headed by an entry give the natural chain unless they say otherwise; changes in a name come on top.
UniProt P00519, whole entry: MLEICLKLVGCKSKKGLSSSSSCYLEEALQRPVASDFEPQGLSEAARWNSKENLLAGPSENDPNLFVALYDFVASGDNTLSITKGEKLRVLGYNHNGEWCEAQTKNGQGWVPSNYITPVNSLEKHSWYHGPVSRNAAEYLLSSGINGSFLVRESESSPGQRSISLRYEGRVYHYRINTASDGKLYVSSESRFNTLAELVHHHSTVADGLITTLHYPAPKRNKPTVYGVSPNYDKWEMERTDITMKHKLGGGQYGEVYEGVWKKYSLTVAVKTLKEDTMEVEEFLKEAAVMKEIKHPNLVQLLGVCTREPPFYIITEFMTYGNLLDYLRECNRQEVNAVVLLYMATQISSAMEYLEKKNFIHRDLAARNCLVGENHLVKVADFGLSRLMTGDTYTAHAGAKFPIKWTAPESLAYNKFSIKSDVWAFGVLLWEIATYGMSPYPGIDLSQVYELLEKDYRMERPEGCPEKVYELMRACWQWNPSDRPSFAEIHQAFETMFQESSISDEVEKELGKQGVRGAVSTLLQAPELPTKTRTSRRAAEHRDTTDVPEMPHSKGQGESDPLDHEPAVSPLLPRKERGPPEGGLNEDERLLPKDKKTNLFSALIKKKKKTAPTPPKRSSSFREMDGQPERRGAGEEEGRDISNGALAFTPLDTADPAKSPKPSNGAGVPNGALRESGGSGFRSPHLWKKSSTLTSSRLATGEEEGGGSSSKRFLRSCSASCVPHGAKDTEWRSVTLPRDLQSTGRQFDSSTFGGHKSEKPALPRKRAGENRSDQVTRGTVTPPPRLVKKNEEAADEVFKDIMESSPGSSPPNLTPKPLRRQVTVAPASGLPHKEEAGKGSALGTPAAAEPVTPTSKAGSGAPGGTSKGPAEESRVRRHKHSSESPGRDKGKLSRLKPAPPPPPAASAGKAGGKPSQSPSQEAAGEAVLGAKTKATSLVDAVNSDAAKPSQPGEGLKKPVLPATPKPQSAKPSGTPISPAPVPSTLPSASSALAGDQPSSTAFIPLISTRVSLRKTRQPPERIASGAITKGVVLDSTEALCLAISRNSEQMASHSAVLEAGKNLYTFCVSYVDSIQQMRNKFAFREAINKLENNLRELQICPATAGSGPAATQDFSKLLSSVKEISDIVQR
UniProt Q96GD4, whole entry: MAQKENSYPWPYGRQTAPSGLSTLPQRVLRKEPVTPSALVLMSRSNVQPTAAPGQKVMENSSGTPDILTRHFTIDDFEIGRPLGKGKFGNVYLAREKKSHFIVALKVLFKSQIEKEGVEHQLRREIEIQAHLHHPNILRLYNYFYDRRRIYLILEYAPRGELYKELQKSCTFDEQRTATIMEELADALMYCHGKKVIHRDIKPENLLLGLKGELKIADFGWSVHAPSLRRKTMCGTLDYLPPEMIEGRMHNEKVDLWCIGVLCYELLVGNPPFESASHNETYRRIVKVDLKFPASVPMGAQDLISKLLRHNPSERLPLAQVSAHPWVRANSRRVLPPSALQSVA
UniProt Q9UQB9: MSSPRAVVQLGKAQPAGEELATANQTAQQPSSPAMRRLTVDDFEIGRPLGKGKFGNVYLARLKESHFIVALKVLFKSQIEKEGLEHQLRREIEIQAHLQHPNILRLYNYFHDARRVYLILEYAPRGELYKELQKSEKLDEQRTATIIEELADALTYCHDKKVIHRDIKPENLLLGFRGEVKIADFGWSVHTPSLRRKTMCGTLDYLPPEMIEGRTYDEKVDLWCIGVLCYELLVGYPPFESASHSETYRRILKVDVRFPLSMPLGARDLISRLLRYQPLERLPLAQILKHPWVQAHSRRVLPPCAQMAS
UniProt P51451: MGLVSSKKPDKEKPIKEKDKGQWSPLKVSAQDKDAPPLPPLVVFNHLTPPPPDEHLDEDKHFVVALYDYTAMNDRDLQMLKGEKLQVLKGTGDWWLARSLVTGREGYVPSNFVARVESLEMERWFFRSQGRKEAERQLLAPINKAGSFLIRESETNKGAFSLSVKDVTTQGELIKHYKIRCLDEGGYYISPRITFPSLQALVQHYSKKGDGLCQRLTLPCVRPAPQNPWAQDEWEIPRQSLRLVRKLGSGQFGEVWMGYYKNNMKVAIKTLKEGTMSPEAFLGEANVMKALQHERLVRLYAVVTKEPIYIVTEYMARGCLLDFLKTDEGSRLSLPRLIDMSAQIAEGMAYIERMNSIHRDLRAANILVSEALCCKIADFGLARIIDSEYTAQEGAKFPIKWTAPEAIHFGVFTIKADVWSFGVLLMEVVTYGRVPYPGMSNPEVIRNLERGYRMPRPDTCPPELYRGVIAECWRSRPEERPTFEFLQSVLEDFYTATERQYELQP
UniProt P15056, whole entry, looked up: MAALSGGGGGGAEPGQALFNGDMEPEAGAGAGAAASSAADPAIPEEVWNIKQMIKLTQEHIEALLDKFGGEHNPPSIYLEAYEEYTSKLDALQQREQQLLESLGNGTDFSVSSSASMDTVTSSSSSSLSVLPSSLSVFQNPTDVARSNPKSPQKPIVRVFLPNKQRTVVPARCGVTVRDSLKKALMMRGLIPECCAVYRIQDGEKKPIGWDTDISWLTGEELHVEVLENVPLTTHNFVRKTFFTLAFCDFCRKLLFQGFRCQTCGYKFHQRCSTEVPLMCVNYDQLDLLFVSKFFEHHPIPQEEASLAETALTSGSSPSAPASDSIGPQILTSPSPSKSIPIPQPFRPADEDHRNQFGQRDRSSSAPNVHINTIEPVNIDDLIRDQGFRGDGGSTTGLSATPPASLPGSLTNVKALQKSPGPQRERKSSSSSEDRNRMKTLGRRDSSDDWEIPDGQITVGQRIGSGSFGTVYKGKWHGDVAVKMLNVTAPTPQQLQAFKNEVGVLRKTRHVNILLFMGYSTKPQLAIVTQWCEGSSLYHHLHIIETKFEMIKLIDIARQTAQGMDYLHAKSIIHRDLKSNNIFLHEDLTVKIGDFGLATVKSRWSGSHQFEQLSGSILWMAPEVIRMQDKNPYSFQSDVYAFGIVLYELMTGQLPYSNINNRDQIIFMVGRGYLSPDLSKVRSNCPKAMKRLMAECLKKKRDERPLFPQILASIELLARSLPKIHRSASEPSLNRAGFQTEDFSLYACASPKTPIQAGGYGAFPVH
UniProt Q06187: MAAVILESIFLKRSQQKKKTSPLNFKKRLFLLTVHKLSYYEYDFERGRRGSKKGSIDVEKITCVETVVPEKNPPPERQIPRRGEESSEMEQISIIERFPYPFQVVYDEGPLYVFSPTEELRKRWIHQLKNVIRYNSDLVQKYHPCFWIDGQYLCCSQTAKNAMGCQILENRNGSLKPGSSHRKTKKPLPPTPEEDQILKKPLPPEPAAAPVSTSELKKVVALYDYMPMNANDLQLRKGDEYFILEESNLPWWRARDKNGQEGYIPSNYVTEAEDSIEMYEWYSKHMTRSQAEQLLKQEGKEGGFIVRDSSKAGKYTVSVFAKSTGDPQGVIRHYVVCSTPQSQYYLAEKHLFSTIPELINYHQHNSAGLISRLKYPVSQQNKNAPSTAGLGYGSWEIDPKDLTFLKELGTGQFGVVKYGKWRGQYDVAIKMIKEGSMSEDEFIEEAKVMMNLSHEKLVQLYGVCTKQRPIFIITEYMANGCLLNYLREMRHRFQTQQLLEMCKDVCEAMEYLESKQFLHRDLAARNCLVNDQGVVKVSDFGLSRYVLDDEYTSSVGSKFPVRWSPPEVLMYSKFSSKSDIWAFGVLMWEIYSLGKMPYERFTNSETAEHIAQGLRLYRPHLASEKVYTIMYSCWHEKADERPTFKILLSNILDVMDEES
UniProt Q9UQM7, whole entry: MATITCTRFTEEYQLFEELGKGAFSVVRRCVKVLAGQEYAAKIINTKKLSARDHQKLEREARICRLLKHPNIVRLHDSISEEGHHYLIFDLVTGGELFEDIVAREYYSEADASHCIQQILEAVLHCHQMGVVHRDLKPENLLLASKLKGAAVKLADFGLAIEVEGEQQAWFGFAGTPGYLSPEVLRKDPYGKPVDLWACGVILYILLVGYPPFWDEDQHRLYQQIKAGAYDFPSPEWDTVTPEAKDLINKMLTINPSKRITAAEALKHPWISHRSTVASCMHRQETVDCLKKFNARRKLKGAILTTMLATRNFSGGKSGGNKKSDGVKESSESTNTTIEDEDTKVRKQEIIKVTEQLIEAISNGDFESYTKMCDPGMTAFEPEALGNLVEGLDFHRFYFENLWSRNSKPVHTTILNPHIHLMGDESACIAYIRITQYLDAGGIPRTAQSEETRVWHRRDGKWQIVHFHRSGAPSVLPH
UniProt Q13555: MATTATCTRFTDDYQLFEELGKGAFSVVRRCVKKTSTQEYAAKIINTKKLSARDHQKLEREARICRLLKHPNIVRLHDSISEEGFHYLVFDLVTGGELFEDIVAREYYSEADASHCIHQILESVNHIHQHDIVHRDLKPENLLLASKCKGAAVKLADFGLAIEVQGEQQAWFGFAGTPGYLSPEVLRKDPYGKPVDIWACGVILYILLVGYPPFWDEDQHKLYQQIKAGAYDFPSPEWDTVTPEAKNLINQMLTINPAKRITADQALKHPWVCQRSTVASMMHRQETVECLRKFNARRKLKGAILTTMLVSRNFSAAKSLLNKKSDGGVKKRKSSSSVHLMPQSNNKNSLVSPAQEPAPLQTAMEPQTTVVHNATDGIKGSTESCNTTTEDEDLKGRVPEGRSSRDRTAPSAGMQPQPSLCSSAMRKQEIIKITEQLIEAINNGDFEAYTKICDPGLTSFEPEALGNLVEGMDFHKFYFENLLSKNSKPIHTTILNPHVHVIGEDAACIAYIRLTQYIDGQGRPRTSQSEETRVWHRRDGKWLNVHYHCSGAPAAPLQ
UniProt Q15131: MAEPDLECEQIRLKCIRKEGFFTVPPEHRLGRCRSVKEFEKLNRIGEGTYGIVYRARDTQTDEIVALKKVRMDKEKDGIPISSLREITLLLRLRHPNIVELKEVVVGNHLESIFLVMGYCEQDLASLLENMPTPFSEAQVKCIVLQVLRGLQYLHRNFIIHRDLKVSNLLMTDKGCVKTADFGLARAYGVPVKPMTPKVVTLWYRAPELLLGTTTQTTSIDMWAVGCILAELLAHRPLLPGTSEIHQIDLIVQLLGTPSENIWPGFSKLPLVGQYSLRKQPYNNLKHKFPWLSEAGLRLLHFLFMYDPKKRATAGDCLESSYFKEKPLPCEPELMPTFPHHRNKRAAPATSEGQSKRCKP
UniProt P11802: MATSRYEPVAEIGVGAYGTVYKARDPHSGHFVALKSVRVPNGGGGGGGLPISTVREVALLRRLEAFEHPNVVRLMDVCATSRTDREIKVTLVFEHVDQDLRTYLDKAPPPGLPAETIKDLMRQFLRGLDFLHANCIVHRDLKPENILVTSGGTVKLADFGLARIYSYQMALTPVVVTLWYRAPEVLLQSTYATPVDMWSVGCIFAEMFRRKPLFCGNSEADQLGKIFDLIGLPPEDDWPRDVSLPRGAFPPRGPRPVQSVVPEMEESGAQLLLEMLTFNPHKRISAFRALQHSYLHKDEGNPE
UniProt Q00535, whole entry, looked up: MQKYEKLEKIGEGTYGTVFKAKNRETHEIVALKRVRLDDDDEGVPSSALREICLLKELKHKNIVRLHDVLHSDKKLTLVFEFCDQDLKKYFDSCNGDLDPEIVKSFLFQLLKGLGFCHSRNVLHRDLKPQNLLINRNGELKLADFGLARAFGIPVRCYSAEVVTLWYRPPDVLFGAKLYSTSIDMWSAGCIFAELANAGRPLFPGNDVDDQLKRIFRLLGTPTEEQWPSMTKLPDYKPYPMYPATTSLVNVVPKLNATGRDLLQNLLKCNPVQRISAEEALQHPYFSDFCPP
UniProt Q00534, whole entry: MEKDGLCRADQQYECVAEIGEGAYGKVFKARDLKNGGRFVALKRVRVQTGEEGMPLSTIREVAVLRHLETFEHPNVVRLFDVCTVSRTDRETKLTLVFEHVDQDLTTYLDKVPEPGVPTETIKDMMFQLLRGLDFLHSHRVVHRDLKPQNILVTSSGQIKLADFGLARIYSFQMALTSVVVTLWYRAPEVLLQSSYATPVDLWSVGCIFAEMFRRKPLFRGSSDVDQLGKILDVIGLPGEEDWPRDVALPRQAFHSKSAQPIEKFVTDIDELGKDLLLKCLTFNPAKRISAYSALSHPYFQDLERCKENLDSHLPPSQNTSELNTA
UniProt O14965: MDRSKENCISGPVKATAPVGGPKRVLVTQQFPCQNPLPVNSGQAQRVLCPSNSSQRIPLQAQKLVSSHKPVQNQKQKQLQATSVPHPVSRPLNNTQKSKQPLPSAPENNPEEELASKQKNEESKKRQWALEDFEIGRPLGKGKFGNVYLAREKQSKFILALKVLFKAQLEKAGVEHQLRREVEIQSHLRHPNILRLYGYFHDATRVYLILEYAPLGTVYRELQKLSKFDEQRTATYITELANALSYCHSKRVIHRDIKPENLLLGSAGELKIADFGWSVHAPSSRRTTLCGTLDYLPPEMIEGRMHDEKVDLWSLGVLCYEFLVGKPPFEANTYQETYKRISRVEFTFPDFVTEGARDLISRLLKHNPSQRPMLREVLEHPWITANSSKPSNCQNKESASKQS

Measured: kinase-Nluc reporter destabilization hit call

O=C(Nc1cccc(Nc2nccc(Nc3cccc(C(F)(F)F)c3)n2)c1)C1CC1 [Aurora kinase inhibitor-3]
inactive: [1]; 2.5 µM 0 | [2]; 2.5 µM 0 | [3]; 2.5 µM 0 | [4]; 2.5 µM 0 | [5]; 2.5 µM 0 | [6]; 2.5 µM 0 | [7]; 2.5 µM 0 | [8]; 2.5 µM 0 | [9]; 2.5 µM 0 | [10]; 2.5 µM 0 | [11]; 2.5 µM 0 | [12]; 2.5 µM 0 | [13]; 2.5 µM 0 | [14]; 2.5 µM 0 | [15]; 2.5 µM 0 | [16]; 2.5 µM 0 | [17]; 2.5 µM 0 | [18]; 2.5 µM 0 | [19]; 2.5 µM 0

CN1CCN(c2nc(C3=C(c4c[nH]c5ccccc45)C(=O)NC3=O)c3ccccc3n2)CC1 [Sotrastaurin]
inactive: [1]; 2.5 µM 0 | [2]; 2.5 µM 0 | [3]; 2.5 µM 0 | [4]; 2.5 µM 0 | [20]; 2.5 µM 0 | [5]; 2.5 µM 0 | [6]; 2.5 µM 0 | [8]; 2.5 µM 0 | [9]; 2.5 µM 0 | [10]; 2.5 µM 0 | [11]; 2.5 µM 0 | [12]; 2.5 µM 0 | [13]; 2.5 µM 0 | [14]; 2.5 µM 0 | [15]; 2.5 µM 0 | [16]; 2.5 µM 0 | [17]; 2.5 µM 0 | [18]; 2.5 µM 0 | [19]; 2.5 µM 0

CCOc1nc(NC(=O)Cc2cc(OC)ccc2OC)cc(N)c1C#N [JNK Inhibitor VIII]
inactive: [1]; 10 µM 0 | [2]; 10 µM 0 | [3]; 10 µM 0 | [4]; 10 µM 0 | [20]; 10 µM 0 | [5]; 10 µM 0 | [6]; 10 µM 0 | [8]; 10 µM 0 | [9]; 10 µM 0 | [10]; 10 µM 0 | [11]; 10 µM 0 | [12]; 10 µM 0 | [13]; 10 µM 0 | [14]; 10 µM 0 | [15]; 10 µM 0 | [16]; 10 µM 0 | [17]; 10 µM 0 | [18]; 10 µM 0 | [19]; 10 µM 0

In the list so far, 2 contain a carbonyl joined to an NH by a bond outside any ring.
O=C(Nc1cccc(Nc2nccc(Nc3cccc(C(F)(F)F)c3)n2)c1)C1CC1 [Aurora kinase inhibitor-3]
inactive: [1]; 2.5 µM 0 | [2]; 2.5 µM 0 | [3]; 2.5 µM 0 | [4]; 2.5 µM 0 | [5]; 2.5 µM 0 | [6]; 2.5 µM 0 | [7]; 2.5 µM 0 | [8]; 2.5 µM 0 | [9]; 2.5 µM 0 | [10]; 2.5 µM 0 | [11]; 2.5 µM 0 | [12]; 2.5 µM 0 | [13]; 2.5 µM 0 | [14]; 2.5 µM 0 | [15]; 2.5 µM 0 | [16]; 2.5 µM 0 | [17]; 2.5 µM 0 | [18]; 2.5 µM 0 | [19]; 2.5 µM 0

CCOc1nc(NC(=O)Cc2cc(OC)ccc2OC)cc(N)c1C#N [JNK Inhibitor VIII]
inactive: [1]; 10 µM 0 | [2]; 10 µM 0 | [3]; 10 µM 0 | [4]; 10 µM 0 | [20]; 10 µM 0 | [5]; 10 µM 0 | [6]; 10 µM 0 | [8]; 10 µM 0 | [9]; 10 µM 0 | [10]; 10 µM 0 | [11]; 10 µM 0 | [12]; 10 µM 0 | [13]; 10 µM 0 | [14]; 10 µM 0 | [15]; 10 µM 0 | [16]; 10 µM 0 | [17]; 10 µM 0 | [18]; 10 µM 0 | [19]; 10 µM 0

(more compounds)

NC(=O)c1c(OCc2c(F)cc(Br)cc2F)nsc1NC(=O)NCCCCN1CCCC1
inactive: [1]; 2.5 µM 0 | [2]; 2.5 µM 0 | [3]; 2.5 µM 0 | [4]; 2.5 µM 0 | [20]; 2.5 µM 0 | [5]; 2.5 µM 0 | [6]; 2.5 µM 0 | [8]; 2.5 µM 0 | [10]; 2.5 µM 0 | [11]; 2.5 µM 0 | [12]; 2.5 µM 0 | [13]; 2.5 µM 0 | [14]; 2.5 µM 0 | [15]; 2.5 µM 0 | [16]; 2.5 µM 0 | [17]; 2.5 µM 0 | [18]; 2.5 µM 0 | [19]; 2.5 µM 0

Cc1cc(C)n2c1C=C1C=CC(CCC(=O)NCCN3CCN(C/C=C/C(=O)N4CCCC(n5nc(-c6ccc(Oc7ccccc7)cc6)c6c(N)ncnc65)C4)CC3)=[N+]1[B-]2(F)F (centres undefined)
inactive: [1]; 2.5 µM 0 | [2]; 2.5 µM 0 | [3]; 2.5 µM 0 | [4]; 2.5 µM 0 | [20]; 2.5 µM 0 | [5]; 2.5 µM 0 | [6]; 2.5 µM 0 | [8]; 2.5 µM 0 | [9]; 2.5 µM 0 | [10]; 2.5 µM 0 | [11]; 2.5 µM 0 | [12]; 2.5 µM 0 | [13]; 2.5 µM 0 | [14]; 2.5 µM 0 | [15]; 2.5 µM 0 | [16]; 2.5 µM 0 | [17]; 2.5 µM 0 | [18]; 2.5 µM 0 | [19]; 2.5 µM 0

CC(C)[C@@](C)(O)[C@@H]1CN(c2nc(-c3[nH]nc4ncccc34)c(F)cc2Cl)CCN1
inactive: [1]; 10 µM 0 | [2]; 10 µM 0 | [3]; 10 µM 0 | [4]; 10 µM 0 | [20]; 10 µM 0 | [5]; 10 µM 0 | [6]; 10 µM 0 | [7]; 10 µM 0 | [9]; 10 µM 0 | [10]; 10 µM 0 | [11]; 10 µM 0 | [12]; 10 µM 0 | [13]; 10 µM 0 | [14]; 10 µM 0 | [15]; 10 µM 0 | [16]; 10 µM 0 | [17]; 10 µM 0 | [18]; 10 µM 0 | [19]; 10 µM 0

O=C1NCCc2[nH]c(-c3ccncc3)cc21
inactive: [1]; 2.5 µM 0 | [2]; 2.5 µM 0 | [3]; 2.5 µM 0 | [4]; 2.5 µM 0 | [20]; 2.5 µM 0 | [5]; 2.5 µM 0 | [6]; 2.5 µM 0 | [8]; 2.5 µM 0 | [9]; 2.5 µM 0 | [10]; 2.5 µM 0 | [12]; 2.5 µM 0 | [13]; 2.5 µM 0 | [14]; 2.5 µM 0 | [15]; 2.5 µM 0 | [16]; 2.5 µM 0 | [17]; 2.5 µM 0 | [18]; 2.5 µM 0 | [19]; 2.5 µM 0

CC(C)N(CCC(=O)c1ccc2ccccc2c1)Cc1ccccc1
inactive: [1]; 10 µM 0 | [2]; 10 µM 0 | [3]; 10 µM 0 | [4]; 10 µM 0 | [5]; 10 µM 0 | [6]; 10 µM 0 | [7]; 10 µM 0 | [8]; 10 µM 0 | [9]; 10 µM 0 | [10]; 10 µM 0 | [11]; 10 µM 0 | [12]; 10 µM 0 | [13]; 10 µM 0 | [14]; 10 µM 0 | [15]; 10 µM 0 | [16]; 10 µM 0 | [17]; 10 µM 0 | [18]; 10 µM 0 | [19]; 10 µM 0

CCCOc1ccc(C=C2SC(=O)NC2=O)cc1
inactive: [1]; 10 µM 0 | [2]; 10 µM 0 | [3]; 10 µM 0 | [4]; 10 µM 0 | [20]; 10 µM 0 | [5]; 10 µM 0 | [6]; 10 µM 0 | [7]; 10 µM 0 | [9]; 10 µM 0 | [10]; 10 µM 0 | [11]; 10 µM 0 | [12]; 10 µM 0 | [13]; 10 µM 0 | [14]; 10 µM 0 | [15]; 10 µM 0 | [16]; 10 µM 0 | [17]; 10 µM 0 | [18]; 10 µM 0 | [19]; 10 µM 0

From the supplement of paper PMC12823440, “Inhibitors supercharge kinase turnover through native proteolytic circuits” (Nature, 2025)
